37 compounds from PubChem BioAssay AID2685 (National Center for Advancing Translational Sciences (NCATS), 2010) can be followed below.

This experiment in a line: qHTS Assay for Lipid Storage Modulators in Drosophila S3 Cells.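 For cell number change: cells counted by Cell Tracker Red CMTPX staining in the red channel.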 Conditions: BODIPY lipid droplet fluorescence, 18-24 h; for cell number change: measured here: cell count max response, cells fed with added oleic acid. Put shortly:
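Drosophila S3 cells got compounds at several concentrations plus oleic acid (400 uM solution). Laser-scanning cytometry with 488 nm excitation read lipid droplets at 500-530 nm and cells at 575-640 nm. Percent activity was relative to 20 uM Triacsin C.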
(In general: Quantitative high-throughput screening tests each substance at several concentrations.)

Setting [1] is: measured here: lipid fluorescence (Fed channel) AC50, cells fed with added oleic acid.
Where [2] appears, read: measured here: cell number channel AC50, cells fed with added oleic acid.

The other results are listed elsewhere or left out. Further columns of the screen follow, without active or inactive calls. Most of these compounds were active or inconclusive in the main read-out, so they are no random draw. Words in brackets tell the shape of the fitted curve; partial curves, single points and poor fits give uncertain potencies.

The term AC50 denotes the concentration at which the activity in the assay is half-maximal. Read a high AC50 as activity only at high concentration.

Take `COc1ccccc1N1CCN(C(=O)Cn2c(=O)[nH]c3ccsc3c2=O)CC1`: the cell number change is -16.5%. Besides, the AC50 under setting [1] is 0.92 µM [rising, full curve, poor fit].
As for `CCN1CC(C)C(O)(c2ccccc2)CC1C` (centres undefined), the cell number change was -31.1%. In addition, under setting [2], the AC50 is 0.206 µM [falling, full curve]. In addition, under setting [1], the AC50 was 23.1 µM [falling, partial curve].
Regarding `CCOC(=O)c1nnc(-c2ccc(C)cc2)nc1Sc1ccc(Cl)cc1`, the cell number change was -10.1%. Besides, under setting [2], the half-maximal activity concentration (AC50) was 0.146 µM [falling, full curve, poor fit]. Also, the AC50 under setting [1] is 2.06 µM [falling, partial curve].
For the compound `CC1CCCC(NC(=O)Cn2cc([N+](=O)[O-])ccc2=O)C1C` (centres undefined), the cell number change is -13.3%. In addition, the AC50 under setting [1] is 6.51 µM [rising, single point].
With `O=S(=O)(c1ccc(N2CC=C(c3ccccc3)CC2)nc1)N1CCCC1`, the cell number change is -5.82%. Under setting [1], the AC50 is 29.1 µM [rising, single point].
With `CCN(CC(=O)Nc1ccc(C(C)=O)cc1)CC(=O)Nc1cccc(OC)c1`, the cell number change was determined as 117%. The AC50 under setting [1] is 18.4 µM [rising, single point].
Regarding `CCN(c1ccccc1)S(=O)(=O)c1ccc(C(=O)NCCCn2ccnc2)cc1`, the cell number change is 49.6%. Besides, under setting [2], the AC50 is 0.82 µM [rising, full curve]. Under setting [1], the half-maximal activity concentration (AC50) was 1.64 µM [rising, full curve].
Consider `CN(NC(=O)CN1C(=O)c2ccccc2C1=O)C1=NS(=O)(=O)c2ccccc21`, for which the cell number change was -28.7%. The AC50 under setting [1] was 29.1 µM [falling, single point].
`COc1ccc(-n2nc(C(=O)NCC(=O)N3CCCCC3)c3ccccc3c2=O)c(OC)c1`: the cell number change is -17.5%. In addition, the concentration at half-maximal activity (AC50) under setting [1] was 32.6 µM [falling, single point].
With `CCCc1nnc(SCC(=O)Nc2cccc(Cl)c2Cl)o1`, the cell number change was -14.5%. Also, the AC50 under setting [2] was 5.8 µM [rising, partial curve].
As to `CCOC(=O)N1CCN(C(=O)COC(=O)c2ccccc2NCCO)CC1`, the AC50 under setting [2] is 6.51 µM [rising, single point].
As for `CCCOC(=O)c1ccc(NC(=O)c2cc(Cl)ccc2OC)cc1`, the cell number change is 3.95%. The concentration at half-maximal activity (AC50) under setting [2] is 1.84 µM [rising, partial curve]. Also, under setting [1], the AC50 was 0.58 µM [rising, full curve, poor fit].
On to `Cc1ccccc1C(=O)Nc1ccnn1C1CCN(Cc2cnn(C)c2)CC1`, for which the cell number change was 6.68%.
In the case of `O=C1COC(c2ccccc2)=CN1Cc1ccccc1`, the cell number change was -13.6%. Moreover, under setting [1], the AC50 was 23.1 µM [falling, single point].
For the compound `CS(=O)(=O)N1CCN(c2ccccc2NC(=O)c2ccco2)CC1`, the cell number change was -15%. In addition, under setting [1], the half-maximal activity concentration (AC50) is 32.6 µM [falling, single point].
Regarding `Cc1ccc2c(CSc3nncn3C)cc(=O)oc2c1C`, the AC50 under setting [2] was 6.51 µM [rising, single point].
For `Cn1c(=O)c2c(ncn2CC(=O)N/N=C/C=C/c2ccccc2[N+](=O)[O-])n(C)c1=O`, the AC50 under setting [1] was 25.9 µM [rising, single point].
Regarding `COc1ccc(/C=N/Nc2cc(N(C)C)nc(N(C)C)n2)cc1`, the cell number change is -14.1%. The concentration at half-maximal activity (AC50) under setting [1] was 1.84 µM [falling, partial curve].
As for `CCN1CCN(Cc2oc(CO)cc(=O)c2O)CC1`, the cell number change is -37.5%. Besides, under setting [1], the half-maximal activity concentration (AC50) is 0.0651 µM [falling, full curve, poor fit].
`NC(=O)c1ccc(Cn2c(C(=O)c3cc(Cl)c(N)c(Cl)c3)c3ccccc3[n+]2[O-])cc1`: the cell number change is -0.451%.
As to `O=C(CNS(=O)(=O)c1cccs1)NCc1ccccc1`, the cell number change was -6.03%. In addition, the concentration at half-maximal activity (AC50) under setting [2] is 1.84 µM [falling, partial curve]. The concentration at half-maximal activity (AC50) under setting [1] was 1.84 µM [falling, partial curve].
As to `COc1ccc(OC)c(NC(=O)CSc2nc3ccccc3c3nc4ccccc4n23)c1`, the cell number change is -44.4%. Moreover, the half-maximal activity concentration (AC50) under setting [2] was 1.84 µM [falling, full curve]. Also, under setting [1], the half-maximal activity concentration (AC50) is 6.51 µM [falling, partial curve, poor fit].
`CCOC(=O)C(NC(C)=O)C(=O)Nc1c(C)cccc1C` (centres undefined): the cell number change amounted to 17.5%.
`CC(=O)c1ccc(NC(=S)NC(=O)/C=C/c2ccccc2)cc1`: the cell number change is -3.85%. Also, under setting [1], the concentration at half-maximal activity (AC50) was 0.461 µM [rising, full curve, poor fit].
Consider `CC(OC(=O)c1ccccn1)C(=O)Nc1ccc2c(c1)OCCO2` (centres undefined), for which the cell number change was -17.2%. The concentration at half-maximal activity (AC50) under setting [1] was 29.1 µM [rising, single point].
As to `CC1(c2ccc3ccccc3c2)NC(=O)N(CC(=O)N2CCN(Cc3ccc(C#N)cc3)CC2)C1=O` (centres undefined), under setting [2], the half-maximal activity concentration (AC50) is 0.164 µM [rising, full curve, poor fit].
For the compound `CC(C)(C)C(=O)Oc1cccc(Nc2ncnc3ccccc23)c1`, the cell number change was -33.1%. Further, the half-maximal activity concentration (AC50) under setting [2] was 1.64 µM [falling, partial curve, poor fit]. Besides, the half-maximal activity concentration (AC50) under setting [1] was 23.1 µM [falling, partial curve].
Consider `COc1ccc(-n2nc(C(=O)NCC(=O)NC3CCCCC3)c3ccccc3c2=O)c(OC)c1`, for which the cell number change was determined as 18%. Further, the concentration at half-maximal activity (AC50) under setting [1] was 6.51 µM [falling, single point].
For the compound `O=C(O)Cc1sc(Nc2ccccc2)nc1-c1ccc(Cl)cc1`, the cell number change is -7.33%. In addition, the concentration at half-maximal activity (AC50) under setting [2] was 0.0058 µM [falling, full curve, poor fit].
For `COc1ccc(C)cc1NC(=O)NNC(=O)c1cc2ccccc2cc1O`, the cell number change is 6.42%.
For `C=C1CSc2nc3ccccc3c(=O)n21`, the cell number change was -15.9%. Further, the half-maximal activity concentration (AC50) under setting [1] was 14.6 µM [rising, partial curve].
With `CCCCc1ccc(NC(=S)Nc2ccc(Cl)c(S(=O)(=O)N(C)C)c2)cc1`, the cell number change amounted to 33.3%. Further, under setting [2], the half-maximal activity concentration (AC50) was 14.6 µM [rising, single point]. Further, the AC50 under setting [1] was 36.6 µM [falling, partial curve, poor fit].
Take `CN(c1ccc(OCc2ccc([N+](=O)[O-])cc2)cc1)S(=O)(=O)c1ccccc1`: the cell number change is -21.9%. The AC50 under setting [1] is 6.51 µM [rising, single point].
On to `CN(C)c1ccc(/C=C(\NC(=O)c2ccccc2)C(=O)N/N=C/c2ccc(C(=O)O)cc2)cc1`, for which the cell number change came out at 9.46%. Moreover, the half-maximal activity concentration (AC50) under setting [1] was 11.6 µM [rising, single point].
For the compound `CCOc1ccc2nc(COC(=O)c3ccncc3)c(C(=O)c3ccccc3)[n+]([O-])c2c1`, the cell number change was -46.9%. Also, the AC50 under setting [1] is 29.1 µM [falling, single point].
As to `COc1cccc(-n2nc(-c3ccnn3-c3ccc(C)cc3)c(=O)n(C)c2=O)c1`, the cell number change was found to be 133%. Moreover, the AC50 under setting [2] was 23.1 µM [rising, partial curve, poor fit].
As to `COc1ccc(N2CCN(C(=O)COC(=O)c3cnccn3)CC2)cc1`, the cell number change was -29.4%. Under setting [1], the half-maximal activity concentration (AC50) is 5.8 µM [falling, full curve].
